Data published in article PMC11667820.
These are yes or no findings as the source states them, for the method shown. In cells and extracts the contact can be indirect. Some binding calls cover weakened binding; strength is not graded here.

Protein sequences, listed by entry. Tags and fused reporters are not part of them.
UniProt Q9BST9: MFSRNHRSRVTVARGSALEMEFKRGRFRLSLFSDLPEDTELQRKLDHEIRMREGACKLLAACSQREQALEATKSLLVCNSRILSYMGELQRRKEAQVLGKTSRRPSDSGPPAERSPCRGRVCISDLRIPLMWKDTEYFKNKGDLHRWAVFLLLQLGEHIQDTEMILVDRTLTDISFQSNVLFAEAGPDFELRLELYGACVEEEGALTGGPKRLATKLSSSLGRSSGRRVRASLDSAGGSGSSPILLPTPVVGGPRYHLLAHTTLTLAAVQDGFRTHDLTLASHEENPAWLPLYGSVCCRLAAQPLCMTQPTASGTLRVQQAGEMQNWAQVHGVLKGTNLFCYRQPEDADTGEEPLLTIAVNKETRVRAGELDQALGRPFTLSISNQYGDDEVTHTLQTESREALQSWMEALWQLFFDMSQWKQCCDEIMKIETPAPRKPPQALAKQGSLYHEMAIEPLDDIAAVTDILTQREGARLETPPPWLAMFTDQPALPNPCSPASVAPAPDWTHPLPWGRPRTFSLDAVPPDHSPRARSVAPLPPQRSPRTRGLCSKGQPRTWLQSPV

Tests used:
[1] = target: T1, vinexin-β (human (endogenous in FaDu and SAS)) (UniProt O60504); assay: co-IP; anti-vinexin immunoprecipitation from lysates of SAS cells expressing RARγ4 constructs; lysis buffer 20 mM Tris-HCl pH 7.5, 150 mM NaCl, 1 mM Na2EDTA, 1 mM EGTA, 0.2% Triton, 1 mM PMSF; 4 °C overnight; protein A/G-agarose; blot for rhotekin and RARγ4
T1 sequence: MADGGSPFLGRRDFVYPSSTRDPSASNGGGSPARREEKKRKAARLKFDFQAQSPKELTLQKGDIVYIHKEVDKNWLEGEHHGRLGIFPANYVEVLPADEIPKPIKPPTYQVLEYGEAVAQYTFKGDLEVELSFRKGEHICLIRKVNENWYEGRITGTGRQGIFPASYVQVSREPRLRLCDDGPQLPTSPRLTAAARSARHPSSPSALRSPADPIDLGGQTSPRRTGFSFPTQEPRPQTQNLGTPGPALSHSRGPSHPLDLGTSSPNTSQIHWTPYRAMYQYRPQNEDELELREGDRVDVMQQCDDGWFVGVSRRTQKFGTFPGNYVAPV

[2] = target: T2, native RARγ1 (retinoic acid receptor gamma isoform 1) (human (endogenous in FaDu and SAS)) (UniProt P13631); assay: co-IP; anti-RARγ1 immunoprecipitation of native RARγ1 from lysates of FaDu and SAS cells, with or without serum starvation (up to 72 h); blot for vinexin-β
T2 sequence: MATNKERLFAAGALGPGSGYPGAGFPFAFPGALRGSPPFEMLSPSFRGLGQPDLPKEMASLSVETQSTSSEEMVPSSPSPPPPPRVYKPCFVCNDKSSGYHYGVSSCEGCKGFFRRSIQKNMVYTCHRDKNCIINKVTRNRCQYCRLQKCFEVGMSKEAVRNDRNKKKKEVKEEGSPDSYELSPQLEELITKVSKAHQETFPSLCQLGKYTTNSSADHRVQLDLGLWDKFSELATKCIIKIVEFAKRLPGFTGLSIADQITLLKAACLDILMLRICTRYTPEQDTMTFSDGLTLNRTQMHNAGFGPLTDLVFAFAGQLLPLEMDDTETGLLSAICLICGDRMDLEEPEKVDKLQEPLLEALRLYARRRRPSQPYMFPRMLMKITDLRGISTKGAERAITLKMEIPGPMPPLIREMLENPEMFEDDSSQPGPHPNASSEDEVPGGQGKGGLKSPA

Row | Molecule | binding [1] | binding [2]
1 | rhotekin (from UniProt Q9BST9 1-563) | binds | –
2 | vinexin-β (protein, UniProt O60504-2 1-329) MADGGSPFLGRRDFVYPSSTRDPSASNGGGSPARREEKKRKAARLKFDFQAQSPKELTLQKGDIVYIHKEVDKNWLEGEHHGRLGIFPANYVEVLPADEIPKPIKPPTYQVLEYGEAVAQYTFKGDLEVELSFRKGEHICLIRKVNENWYEGRITGTGRQGIFPASYVQVSREPRLRLCDDGPQLPTSPRLTAAARSARHPSSPSALRSPADPIDLGGQTSPRRTGFSFPTQEPRPQTQNLGTPGPALSHSRGPSHPLDLGTSSPNTSQIHWTPYRAMYQYRPQNEDELELREGDRVDVMQQCDDGWFVGVSRRTQKFGTFPGNYVAPV | – | binds
